Results deposited as PubChem BioAssay AID652259 (Drosophila RNAi Screening Center, 2013).
Screen: 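Knock-downs that push a Wingless-driven reporter up or down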 (primary screen). Cell system: Drosophila clone 8 imaginal disc epithelial cells. Reagent: long dsRNA against Drosophila genes. Conditions: pathway stimulated by co-transfected Wingless expression plasmid. Measured: 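Firefly luciferase from a tcf-site Wingless reporter, measured alongside co-transfected Renilla luciferase that tracks transfection; pathway stimulated by a Wingless plasmid; the firefly-to-Renilla ratio is not deposited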. Direction: firefly reporter light: higher = more Wg reporter light, before normalisation; Renilla control light: higher = more transfected or surviving cells. Active means: 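Strong candidates differ from their plate mean by at least two out of four per-plate statistical tests; weak candidates meet just one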. Calls: active = candidate regulator (raises or lowers reporter); inactive = not a candidate.
In all, the deposit lists about 22,000 reagents; below is an unselected part of those with a known target gene and a result. In the full data, 233 (1.1%) were called active. 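Light values are raw, unnormalised plate reads; the ratio scores behind the reporter calls were not deposited.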 Entries without a mark were called inactive. Reagents against one gene are numbered here. A plus sign joins genes that one reagent is predicted to hit. The record does not give: the amount of reagent, the time to read-out, the dose of the treatment.

Target gene | dsRNA no. | firefly reporter light, replicate 1 | firefly reporter light, replicate 2 | Renilla control light, replicate 1 | Renilla control light, replicate 2
mRpL10 | 1 | 13077 | – | 3920 | –
CG12016 + Dpm2 | 1 | 4211 | – | 1302 | –
cher | 1 | 3099 | 6301 | 1176 | 1962
Pi3K59F | 1 | 6308 | – | 1561 | –
spri | 1 | 13649 | – | 5971 | –
spri | 2 | 16501 | – | 6291 | –
spri | 3 | 21397 | – | 10105 | –
spri | 4 | 29749 | – | 13458 | –
spri | 5 | 18821 | – | 9453 | –
spri | 6 | 14921 | – | 8096 | –
spri | 7 | 4.44e5 | 4.62e5 | 1.75e5 | 1.63e5
CG7029 | 1 | 3563 | 4440 | 1333 | 1504
prg | 1 | 3576 | 10533 | 1020 | 2645
MED8 | 1 | 11821 | – | 2549 | –
cpa | 1 | 7672 | – | 2245 | –
SoxN | 1 | 4499 | 8726 | 1723 | 4656
SoxN | 2 | 6.08e5 | 5.52e5 | 1.85e5 | 1.40e5
Ir60a | 1 | 1997 | 4443 | 452 | 1929
asRNA:CR43468 + Lfg | 1 | 5893 | – | 2471 | –
CG1698 | 1 | 8698 | – | 2909 | –
CG31126 | 1 | 17776 | – | 11501 | –
CG7888 | 1 | 4448 | – | 2098 | –
CG8160 | 1 | 10945 | – | 4246 | –
CG8160 | 2 | 7.60e5 | 6.99e5 | 3.67e5 | 3.28e5
Hey | 1 | 2256 | 4884 | 263 | 477
Ccdc85 | 1 | 2429 | 5811 | 573 | 773
CG3640 | 1 | 2796 | 9573 | 1136 | 3228
bsh | 1 | 2317 | – | 874 | –
CG42372 + CG30100 | 1 | 18160 | – | 5962 | –
CG5550 | 1 | 5009 | – | 2221 | –
Cpr47Ef | 1 | 7184 | – | 3783 | –
Cpr47Ef | 2 | 4.16e5 | 4.50e5 | 1.39e5 | 1.37e5
Ugt35B1 | 1 | 8827 | – | 2736 | –
CG14391 | 1 | 15899 | – | 3739 | –
Acsx4 | 1 | 13296 | – | 3517 | –
Coq2 | 1 | 19852 | – | 6576 | –
Coq2 | 2 | 6.35e5 | 6.94e5 | 4.59e5 | 3.31e5
mRpL22 | 1 | 15177 | – | 7893 | –
CanB2 | 1 | 4596 | – | 1228 | –
Mcm3 | 1 | 1692 | 4450 | 599 | 1523
Fas2 | 1 | 2711 | – | 1216 | –
Fas2 | 2 | 3180 | – | 1125 | –
Fas2 | 3 | 2233 | 6807 | 1168 | 2324
CG13130 (retired record) | 1 | 4930 | 14237 | 1420 | 3223
Pex1 | 1 | 4787 | – | 2021 | –
CG7884 | 1 | 9877 | – | 8389 | –
GV1 | 1 | 7810 | – | 3053 | –

Targets above whose gene name begins with F or f (3):
Target gene | dsRNA no. | firefly reporter light, replicate 1 | firefly reporter light, replicate 2 | Renilla control light, replicate 1 | Renilla control light, replicate 2
Fas2 | 1 | 2711 | – | 1216 | –
Fas2 | 2 | 3180 | – | 1125 | –
Fas2 | 3 | 2233 | 6807 | 1168 | 2324

Additional entries:
Target gene | dsRNA no. | firefly reporter light, replicate 1 | firefly reporter light, replicate 2 | Renilla control light, replicate 1 | Renilla control light, replicate 2
CG33958 | 1 | 4864 | – | 2042 | –
CG33958 | 2 | 9744 | – | 2874 | –
CG15529 | 1 | 7559 | – | 2977 | –
Dek | 1 | 8180 | – | 2610 | –
CG12857 | 1 | 4797 | – | 2349 | –
Calr | 1 | 6762 | – | 2017 | –
CG43058 | 1 | 19162 | – | 15948 | –
CR32011 + CR32010 + PlexB + 1 more | 1 | 5.58e5 | 5.12e5 | 2.16e5 | 1.98e5
Dop1R1 | 1 | 2996 | – | 1130 | –
Dop1R1 | 2 | 2673 | – | 812 | –
Dop1R1 | 3 | 14887 | – | 2343 | –
CG17780 | 1 | 20005 | – | 13442 | –
AnxB10 | 1 | 2490 | 8907 | 1139 | 3285
CG14985 | 1 | 2105 | – | 1216 | –
CG14985 | 2 | 7336 | – | 3098 | –
bib | 1 | 6380 | – | 2076 | –
CG4928 | 1 | 2071 | 4577 | 681 | 1581
CG30060 | 1 | 13602 | – | 11202 | –
CG14763 | 1 | 3172 | 8796 | 934 | 4237
CG31125 | 1 | 3527 | – | 1760 | –
bnk | 1 | 7744 | – | 2705 | –
amos | 1 | 2037 | 6340 | 466 | 2916
Rpn3 | 1 | 1604 | 4968 | 487 | 2195
S1P | 1 | 17916 | – | 5895 | –
lark | 1 | 7257 | – | 2042 | –
CG30036 | 1 | 3.19e5 | 3.70e5 | 1.90e5 | 1.38e5
